Results are given in words; binding and its absence hold for the method and conditions named. Binding seen in cells or lysates may run through a third protein. Some results given as binding are weak or reduced against the parent protein; the word gives no strength.
Target: eukaryotic translation initiation factor 4E (eIF4E) (human (endogenous in PC-3)) (UniProt P06730)
Test: co-IP; 1 mg PC-3 lysate incubated with rabbit anti-eIF4E antibody O/N at 4 °C, Trueblot anti-rabbit Ig IP beads, Western blot for Hsp27; cells treated for 48 h with DMSO (control), phenazine #14, DOTAU, DOU-PEG2000, NP DOTAU-phenazine #14 or NP DOU-PEG2000-phenazine #14 at 100 µM

Chains of the proteins cited; added tags and fusions are not shown.
UniProt P06730: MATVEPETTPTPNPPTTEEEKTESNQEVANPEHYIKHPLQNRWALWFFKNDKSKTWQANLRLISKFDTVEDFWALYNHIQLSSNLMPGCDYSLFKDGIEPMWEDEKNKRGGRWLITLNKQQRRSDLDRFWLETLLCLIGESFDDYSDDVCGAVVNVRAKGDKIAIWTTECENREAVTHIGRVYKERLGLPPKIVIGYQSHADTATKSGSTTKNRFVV
UniProt P04792: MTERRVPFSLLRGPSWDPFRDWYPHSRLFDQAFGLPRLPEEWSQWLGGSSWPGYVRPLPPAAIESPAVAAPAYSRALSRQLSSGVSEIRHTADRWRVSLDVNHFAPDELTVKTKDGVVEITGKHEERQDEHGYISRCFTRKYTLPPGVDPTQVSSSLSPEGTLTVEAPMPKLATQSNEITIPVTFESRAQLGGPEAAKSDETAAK

binding: binds
Substance: Heat shock protein 27 (Hsp27) (from UniProt P04792 1-205)
